Literature values as cited in patent US20120064175A1, “HSP90 Inhibitors for Treating Non-Small Cell Lung Cancer in Wild-Type EGFR and/or KRAS Patients” (Synta Pharmaceuticals Corp., priority 2010, published 2012).
For part of these data: At least one structure is not confirmed: it was looked up by name or label, or the drawing left a doubt. Some of these results come from one statement about several compounds together. Some compounds share one range, which may span the group rather than tell each member.

Columns and labels:
[1] = tested on: non-small cell lung cancer; conditions: comparator drugs, range stated for the four together; cited from earlier work
[2] = tested on: BCR-ABL leukemia cells; conditions: cited from earlier work
[3] = tested on: BCR-ABL; conditions: cited from earlier work
[4] = tested on: BCR-ABL with Hsp90; conditions: cited from earlier work

Row | Compound | DCR (disease control rate) [1] | Apoptosis [2] | Effect on BCR-ABL protein [3] | Effect on the association of BCR-ABL with Hsp90 [4]
1 | CC(=O)O[C@@]12CO[C@@H]1C[C@H](O)[C@@]1(C)C(=O)[C@H](O)C3=C(C)[C@@H](OC(=O)[C@H](O)[C@@H](NC(=O)OC(C)(C)C)c4ccccc4)C[C@@](O)([C@@H](OC(=O)c4ccccc4)[C@H]21)C3(C)C [Taxotere] | 35-57% |  |  | 
2 | CNC(=O)c1cc(Oc2ccc(NC(=O)Nc3ccc(Cl)c(C(F)(F)F)c3)cc2)ccn1 [Nexavar] | 35-57% |  |  | 
3 | COC1=C2C[C@@H](C)C[C@H](OC)[C@H](O)[C@@H](C)/C=C(\C)[C@H](OC(N)=O)[C@@H](OC)/C=C\C=C(/C)C(=O)NC(=CC1=O)C2=O [geldanamycin] |  | induces apoptosis | proteasomal degradation of BCR-ABL | disrupts the association of BCR-ABL with Hsp90
4 | Nc1nc2[nH]cc(CCc3ccc(C(=O)N[C@@H](CCC(=O)O)C(=O)O)cc3)c2c(=O)[nH]1 [Alimta] | 35-57% |  |  | 
